In PMC12208777 one finds binding data, which are given here for one molecule.

By UniProt entry, the sequences of proteins in these tests, tags left out.
UniProt P21271: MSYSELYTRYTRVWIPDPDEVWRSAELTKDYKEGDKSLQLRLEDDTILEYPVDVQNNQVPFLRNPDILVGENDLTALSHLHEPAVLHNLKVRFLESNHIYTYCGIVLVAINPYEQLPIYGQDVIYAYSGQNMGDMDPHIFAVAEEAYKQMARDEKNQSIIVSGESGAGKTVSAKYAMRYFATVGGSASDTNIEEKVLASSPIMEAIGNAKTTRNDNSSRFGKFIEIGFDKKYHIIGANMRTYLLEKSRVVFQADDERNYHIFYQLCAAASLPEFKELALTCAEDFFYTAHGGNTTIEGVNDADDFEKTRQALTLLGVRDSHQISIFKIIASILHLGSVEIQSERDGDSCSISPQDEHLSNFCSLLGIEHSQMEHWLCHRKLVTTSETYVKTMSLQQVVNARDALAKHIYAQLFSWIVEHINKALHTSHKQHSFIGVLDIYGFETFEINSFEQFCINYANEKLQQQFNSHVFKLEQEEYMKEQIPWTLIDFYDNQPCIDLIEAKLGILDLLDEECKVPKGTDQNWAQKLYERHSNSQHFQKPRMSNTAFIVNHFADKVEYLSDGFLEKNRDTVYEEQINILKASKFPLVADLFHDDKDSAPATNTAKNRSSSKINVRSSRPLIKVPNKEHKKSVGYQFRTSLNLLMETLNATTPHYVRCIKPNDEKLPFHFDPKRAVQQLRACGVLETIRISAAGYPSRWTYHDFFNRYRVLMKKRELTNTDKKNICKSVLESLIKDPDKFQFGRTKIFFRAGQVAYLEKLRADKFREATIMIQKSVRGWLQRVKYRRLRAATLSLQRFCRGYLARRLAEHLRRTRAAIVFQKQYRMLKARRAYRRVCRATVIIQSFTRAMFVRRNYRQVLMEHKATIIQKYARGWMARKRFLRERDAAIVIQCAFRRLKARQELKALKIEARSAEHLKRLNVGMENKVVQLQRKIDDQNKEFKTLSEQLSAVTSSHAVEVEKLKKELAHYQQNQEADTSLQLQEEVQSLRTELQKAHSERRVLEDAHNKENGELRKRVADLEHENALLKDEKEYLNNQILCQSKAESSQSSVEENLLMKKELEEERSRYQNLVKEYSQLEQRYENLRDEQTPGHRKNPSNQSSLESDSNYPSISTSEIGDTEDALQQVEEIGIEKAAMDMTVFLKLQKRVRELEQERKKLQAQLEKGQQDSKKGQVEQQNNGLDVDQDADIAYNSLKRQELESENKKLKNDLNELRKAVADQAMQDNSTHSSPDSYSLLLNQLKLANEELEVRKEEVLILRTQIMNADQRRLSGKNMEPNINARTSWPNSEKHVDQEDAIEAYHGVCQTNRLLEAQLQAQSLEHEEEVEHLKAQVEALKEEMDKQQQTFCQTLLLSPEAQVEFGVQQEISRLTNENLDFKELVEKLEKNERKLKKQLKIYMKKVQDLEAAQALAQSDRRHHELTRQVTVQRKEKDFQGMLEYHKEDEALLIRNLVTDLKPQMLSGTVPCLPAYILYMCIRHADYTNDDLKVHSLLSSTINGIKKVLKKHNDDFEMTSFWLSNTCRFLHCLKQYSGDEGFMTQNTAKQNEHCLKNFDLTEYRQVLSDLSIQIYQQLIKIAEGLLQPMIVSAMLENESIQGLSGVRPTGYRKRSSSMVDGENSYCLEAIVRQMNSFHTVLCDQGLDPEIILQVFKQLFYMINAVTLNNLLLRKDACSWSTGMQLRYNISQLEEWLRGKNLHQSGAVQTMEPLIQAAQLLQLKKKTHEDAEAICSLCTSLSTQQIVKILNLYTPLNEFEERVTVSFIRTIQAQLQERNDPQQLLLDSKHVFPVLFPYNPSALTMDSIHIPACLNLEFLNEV

These are yes or no findings as the source states them, for the method shown. In cells and extracts the contact can be indirect. Here binding means that the protein was enriched with, or labelled near, the bait; the list need not be complete.

This test concerns the target myosin-5b (mouse (endogenous in mouse heart and adult mouse cardiomyocytes)) (UniProt P21271). Kind of test: affinity purification with mass spectrometry; myosin-5b immunoprecipitation followed by liquid chromatography mass spectrometry-based proteomics; adult mouse cardiomyocytes from six wild-type and five knockout animals.

B1: adenosine triphosphate synthase F1 sub-unit d (protein, UniProt Q9D3D9 23-168)
chain: AEAAAAPAPAAGPGQMSFTFASPTQVFFDSANVKQVDVPTLTGAFGILASHVPTLQVLRPGLVVVHTEDGTTTKYFVSSGSVTVNADSSVQLLAEEAVTLDMLDLGAARANLEKAQSELSGAADEAARAEIQIRIEANEALVKALE
With B1, the binding result is given as “binds”.
